Data from paper PMC10163288.
This is one part of the list.

B1: il10ra_site1_normal_mot_HHH_b1_05326_000000242_0001_1_20_H_._HHH_b1_03012_af2_0001_0000200011_0000001_0 (protein)
chain: SSSSDEELQEALELSLEAFRLLLRGNEEEAKEVLEKAEELLEKAGDPRLLRAVRDLLQVISSSSS
B2: il10ra_site1_sap_25_mot_HHH_b1_02208_000000160_0001_1_19_H_._HHH_b2_05740_af2_0001_0000700026_0000002_0_0001 (protein)
chain: SSSSDMEEELIEALLRLLEQAIELGNEEHARRLIEAVRLAIERNNDEEAEERLRELEERLKSSSS
B3: il10ra_site1_sap_11_mot_HHH_b2_06321_af2_000000133_0001_42_55_H_._HHH_b1_01516_0001_0000300019_0000001_0_0001 (protein)
chain: SSSSSADEWYELLRRAIELAKEGNPEEARELLKEAEEIARELNSKVAELLIEFVEKEVEKASSSS
B4: il10ra_site1_normal_mot_HHH_b1_02809_af2_000000277_0001_40_57_H_._HHH_b1_02735_0001_0000400019_0000001_0 (protein)
chain: SSSSSDEEARRTARFLLRAAKQVPDPEKRELALRFALRLAREGNDPELEEEIEELLEQLGSSSSS
B5: il10ra_site1_sap_25_mot_HHH_b1_01082_af2_000000031_0001_3_19_H_._HHH_b1_02874_0001_0000300019_0000001_0_0001_1 (protein)
chain: SSSSDEEVEKLIHQAIELLIRGNPEEAEKVLEEARELAEKLGDPRLEELIELLLKMIEDAGSSSS
B6: il10ra_site1_sap_16_mot_HHH_b1_00814_af2_000000078_0001_43_57_H_._HHH_b2_04839_af2_0001_0000200006_0000001_0_0001 (protein)
chain: SSSSDESHELAVRAVLRAARLFIRGNPEEAERLLEEVLKELRELGDEEAEEVIERALEVFKSSSS
B7: il10ra_site1_sap_15_mot_HHH_b2_02354_af2_000000157_0001_40_56_H_._HHH_b1_07270_0001_0000500051_0000001_1_0001 (protein)
chain: SSSSSEQERAALRFAKWLIEIIEETGNPSARRSLEVMLWLLERINSEEAEELLKEAEELLSSSSS
B8: il10ra_site1_normal_mot_HHH_b2_08186_000000021_0001_43_56_H_._HHH_b1_08292_af2_0001_0000100002_0000002_0 (protein)
chain: SSSSSSEEEEEVRELLEELEKIKDHEEFLRLAQEILRLIFELGNDELLKRLWEILKRSHSSSSSS
B9: il10ra_site1_sap_25_mot_HHH_b2_03220_af2_000000223_0001_23_40_H_._HHH_b2_05514_af2_0001_0000300004_0000001_0_0001 (protein)
chain: SSSSDEAREEIWELIRKALELRAEGNPEEAERLLEEARELAEENNSWVFLHAIEHLLRAIRSSSS
B10: il10ra_site1_normal_mot_e1dd4851c59bc1cdde016f988f6856bd_0001_1_000000200_0001_16_31_H_._HEEHE_2724_af2_0001_0000100003_0000001_0_af2pred_dldesign_0_af2pred (protein)
chain: SKLDRFRLGVAAAAETAGVSDVTVTEKDGVVIVTINANTPQAEELKNMVEYLAEKLDIKVEVVIK
B11: il10ra_site1_sap_17_mot_HHH_b2_02497_000000141_0001_1_20_H_._HHH_b2_05869_0001_0000200022_0000001_0_0001 (protein)
chain: SSSSDEEIRERVEELLEQAEETDDADEAYELLREAIELASEGRDPELLELVMEIIRRWLRSSSSS
B12: il10ra_site1_sap_22_mot_HHH_b1_06789_af2_000000041_0001_1_20_H_._HHH_b2_06526_0001_0000400019_0000001_0_0001 (protein)
chain: SSSSSREEVLRLIIRAIRALFRGDPEEARELVEEAHEIARENNDPDLERAVEILRRAVEAASSSS
B13: il10ra_site1_sap_16_mot_HHH_b2_06857_af2_000000179_0001_42_54_H_._HHH_b2_07872_af2_0001_0000100004_0000002_0_0001 (protein)
chain: SSSSSDRQELIELIEEVLELLIRNDEEHLRELLKEALEIAEELGDERAAHVLEDLLKLVGSSSSS
B14: il10ra_site1_sap_14_mot_HHH_b1_02397_af2_000000085_0001_39_57_H_._HHH_b2_01571_af2_0001_0001400005_0000001_0_0001 (protein)
chain: SSSSDERDELSRLVYEASRAAFEARSEEEREEIKELLERLLEEVPDPAMQSVLRIAIRELSSSSS
B15: il10ra_site1_normal_mot_HHH_b2_00612_000000251_0001_1_14_H_._HHH_b2_04913_0002_0000500043_0000001_0_af2pred_0001 (protein)
chain: SSSSSEATRLAREALKLLLELAEEGDPEEVERLAEEVKEELEELGNELAARQIEFAAKRLKSSSS
B16: il10ra_site1_sap_19_mot_HHH_b2_03529_000000059_0001_37_51_H_._HHH_b1_07155_0001_0000100004_0000001_0_0001 (protein)
chain: SSSSDQEFYERVEEAIKRAIELQRNGNPEEAEELLEEILRLAEEEGNWAVRFAIRHLLRLLSSSS
B17: il10ra_site1_sap_17_mot_HHH_b1_07369_af2_000000079_0001_1_18_H_._HHH_b1_01560_0001_0000100001_0000001_0_0001 (protein)
chain: SSSSYEEVKRLIEEIIRALREGNPEEARELLEELERLAEERNDPALRFAVELLERAIRRASSSSS
B18: il10ra_site1_sap_17_mot_HHH_b1_06789_af2_000000041_0001_1_20_H_._HHH_b1_04601_0001_0000700049_0000002_0_0001_af2pred_0001 (protein)
chain: SSSSSDEEFERLVEELLEEAKHIEDPDELSYVLIRAFAIANEGRDPELKELVEEVAQELISSSSS
B19: il10ra_site1_sap_25_mot_HHH_b2_01776_000000118_0001_38_52_H_._ems_3hC_921_0001_0000200020_0000001_0_0001 (protein)
chain: SSSSYEEVKKLIEEIIRLAREGNPEEAEKVLEELERLAEELNNPSVRFVVELLKEAIRAHSSSSS
B20: il10ra_site1_normal_mot_HHH_b1_00999_000000080_0001_41_55_H_._HHH_b1_00039_af2_0001_0000100003_0000001_0 (protein)
chain: SSSSSSDISELAQEALRFAFRLGDEEVLRAIWELVKKWGREGDPRYEEELEELLEELRSSSSSSS
B21: il10ra_site1_normal_mot_HHH_b1_03262_af2_000000181_0001_43_57_H_._HHH_b2_04604_0001_0000200009_0000001_1_af2pred_0001 (protein)
chain: SSSSDERVRLTLHLVELLIKEGDLEAARFLLKAAKRLAERDGDEELEELIERLEEEVREGSSSSS
B22: il10ra_site1_normal_mot_65b8060e20531850bca9f2e11f97d954_0001_af2_000000137_0001_17_31_H_._HHH_b2_06315_0001_0000100001_0000002_0_af2pred_0001 (protein)
chain: SSSSDRDERALEIARRAAELLLEEGDPEAAKLALRLAVLLAKALGNEELLEELERLLREISSSSS
B23: il10ra_site1_normal_mot_HHH_b2_02354_af2_000000157_0001_40_56_H_._HHH_b1_07268_0001_0000100002_0000001_0_af2pred_0001 (protein)
chain: SSSSDKHEAAELITEIIKLLKEGDHEEAKELIEELEELAKRLNNPALKHLVKSLKKVIKEQSSSS
B24: il10ra_site1_sap_27_mot_HHH_b1_07286_af2_000000054_0001_1_19_H_._HHH_b2_07908_0001_0000600047_0000001_0_0001 (protein)
chain: SSSSDEWYERAKRLIERAAQLAREGNPEEAEEVLEELLELLRERGDRITSLVVEFAIRSLSSSSS
B25: il10ra_site1_sap_18_mot_HHH_b2_00230_000000227_0001_1_19_H_._HHH_b2_01903_0001_0000500025_0000001_0_0001_af2pred_0001 (protein)
chain: SSSSNEEERVARLLFRVVELLANGNPEEAEEVLEEARRLAEELGDEELRRAVEIAERAVKSSSSS
B26: il10ra_site1_normal_mot_HHH_b2_07086_af2_000000231_0001_20_36_H_._HHH_b2_02380_0001_0000200015_0000002_0_af2pred_dldesign_0_af2pred (protein)
chain: SSSSSPIEEEINRLIEKAKELKKAGKLQEAAELLREALRLAYENKNAELFNKVIKAAAELKSSSS
B27: il10ra_site1_sap_11_mot_HHH_b1_06348_000000162_0001_1_15_H_._HHH_b1_01184_af2_0002_0000500007_0000001_0_0001_af2pred_0001 (protein)
chain: SSSSSSDDIEEVIRLIREALHIDDPEEAREVLEEAEELARESNNPFLRFLVESALKKLSSSSSSS
B28: il10ra_site1_normal_mot_HHH_b2_00984_000000042_0001_1_20_H_._HHH_b1_00267_af2_0001_0000100004_0000002_0 (protein)
chain: SSSSSSDLEELLEELEELVEEGDREEASRLAAELVRLAFRLSDPEILQAVWKLIQSLRSSSSSSS
B29: il10ra_site1_sap_23_mot_HHH_b2_00479_000000091_0001_1_12_H_._HHH_b2_04892_af2_0001_0000800022_0000001_0_0001 (protein)
chain: SSSSDQAMRYIVEWVLENAERQVELGNPEKARIQLEALAEHLKQAGDEELLELVEELLERLSSSS
B30: il10ra_site1_sap_15_mot_HHH_b1_00814_af2_000000078_0001_43_57_H_._HHH_b2_00250_af2_0001_0000100010_0000001_0_0001_af2pred_0001 (protein)
chain: SSSSSRSAEEAIRRLLRAAKQLEDEERLKLAIRDALAAAEFLGNEELVEELRKILEELRSSSSSS
B31: il10ra_site1_normal_mot_65b8060e20531850bca9f2e11f97d954_0001_af2_000000137_0001_17_31_H_._HHH_b1_05146_af2_0001_0000500027_0000002_0 (protein)
chain: SSSSDDEVLELLVRVSRLLAEGNREEAEELLEELEKLIEELGDPRLELSLRFLEALLRSLSSSSS
B32: il10ra_site1_normal_mot_HHH_b2_08186_000000021_0001_43_56_H_._HHH_b2_03966_af2_0001_0000200007_0000002_0 (protein)
chain: SSSSDEEEERIEELLEEARRRFEEGDPERVLRLLLEALQLAYRTSDPELLKEIWELLKELSSSSS
B33: il10ra_site1_sap_12_mot_HHH_b2_01447_af2_000000258_0001_1_20_H_._HHH_b1_05821_0001_0000200018_0000002_0_0001_af2pred_0001 (protein)
chain: SSSSNYEERVAELLFEALELAARGNPEEARRLVEEAEEIAEENNDEELQRAVEILKRFIRSSSSS
B34: il10ra_site1_sap_25_mot_ems_3hM_235_000000244_0001_46_64_H_._HHH_b2_04950_0001_0000100004_0000002_0_0001_af2pred_0001 (protein)
chain: SSSSDEEYEEEVERLLEEAKHIEDPEEVKKIIAEAARLASEAKNPELAELVLQVWAELVDSSSSS
B35: il10ra_site1_sap_24_mot_HHH_b1_05587_000000266_0001_24_40_H_._HHH_b1_06872_0001_0000300018_0000002_0_0001 (protein)
chain: SSSSDARELVLRLLMRAVRLLFRGNPEEARELVEEAEEIAKELNDPELLRAAEIVLRMIEGSSSS
B36: il10ra_site1_normal_mot_HHH_b1_05357_000000034_0001_23_39_H_._HHH_b1_03844_0001_0000100001_0000001_0_af2pred_0001 (protein)
chain: SSSSDKEEVAYLLLRAYAAASQGNPEEAEELLEEAERIAEENNNERLKISIEIAKRAVRELSSSS
B37: il10ra_site1_normal_mot_HHH_b1_06789_af2_000000041_0001_1_20_H_._HHH_b2_01741_0001_0000400040_0000001_0_af2pred_0001 (protein)
chain: SSSSTLEEDVRSALRAAELLAEKGDPELAERALEIAELLAEQANDPELEELVEEVRKRVEGSSSS

Molecular target: il10ra, Q13651
Test: yeast display titration

Apparent Kd, inactive:
B1 no binding seen
B2 no binding seen
B3 no binding seen
B4 no binding seen
B5 no binding seen
B6 no binding seen
B7 no binding seen
B8 no binding seen
B9 no binding seen
B10 no binding seen
B11 no binding seen
B12 no binding seen
B13 no binding seen
B14 no binding seen
B15 no binding seen
B16 > 1500 nM
B17 no binding seen
B18 no binding seen
B19 no binding seen
B20 no binding seen
B21 no binding seen
B22 no binding seen
B23 no binding seen
B24 > 664 nM
B25 no binding seen
B26 no binding seen
B27 no binding seen
B28 no binding seen
B29 no binding seen
B30 no binding seen
B31 no binding seen
B32 no binding seen
B33 no binding seen
B34 no binding seen
B35 no binding seen
B36 no binding seen
B37 no binding seen

Three entries drawn at random from the list so far, as already listed:
Apparent Kd, inactive:
B12 no binding seen
B34 no binding seen
B5 no binding seen
